The list is a part of this screen's results and no random one: it is rich in T/C values a quarter to a half above the control, in often repeated tests (any T/C) and in doses without a T/C. Other doses and runs of a compound stand elsewhere. T/C is the treated group as % of the vehicle group. For survival time, this PubChem deposit counts one and a half times the control or more as active, and values a quarter to a half above the control carry no call in these data; other NCI protocols may use other cut-offs. Schedule codes are those of the source, read here as Q, the interval in days (D) or hours (H), X, the number of doses. Some T/C values are followed by the survivors on the day toxicity was checked, most often the fifth; where none is given, no animal had died by that day. Some doses were run more than once; their values stand side by side, smallest first. Additions like (4×) say how often a value occurs here.
Test system: L1210 leukemia ip in BDF1 mice, survival T/C
Test: NCI In Vivo Anticancer Drug Screen. Data for tumor model L1210 Leukemia (intraperitoneal) in B6D2F1 (BDF1) mice
Settings: higher T/C = longer survival

COc1cccc2c1C(=O)c1c(O)c3c(c(O)c1C2=O)C[C@@](O)(C(=O)CO)C[C@@H]3OC1CC(N)C(O)C(C)O1 (some centres undefined)
T/C (T/C endpoint: mean survival time, dose: 67.0 micrograms/kg/injection, schedule: Q03HX032 (ip), vehicle: clinical formulation): 125 % of control
T/C (T/C endpoint: mean survival time, dose: 220.0 micrograms/kg/injection, schedule: Q03HX032 (ip), vehicle: clinical formulation): 126 % of control
T/C (T/C endpoint: mean survival time, dose: 330.0 micrograms/kg/injection, schedule: Q03HX032 (ip), vehicle: clinical formulation): 131 % of control
T/C (T/C endpoint: mean survival time, dose: 750.0 micrograms/kg/injection, schedule: Q03HX032 (ip), vehicle: clinical formulation): 147 % of control
T/C (T/C endpoint: median survival time, dose: 0.19 mg/kg/injection, schedule: Q03HX008 (ip), vehicle: water, evaluated on day 5): 103, 111, 121 % of control
T/C (T/C endpoint: median survival time, dose: 0.19 mg/kg/injection, schedule: Q03HX008 (ip), vehicle: water, evaluated on day 20): 111 % of control
T/C (T/C endpoint: median survival time, dose: 0.19 mg/kg/injection, schedule: Q03HX008 (ip), vehicle: water, evaluated on day 29): 121 % of control
T/C (T/C endpoint: median survival time, dose: 0.19 mg/kg/injection, schedule: Q03HX008 (ip), vehicle: water, evaluated on day 30): 103 % of control
T/C (T/C endpoint: median survival time, dose: 0.23 mg/kg/injection, schedule: Q04DX003 (ip), vehicle: water): 125 % of control
T/C (T/C endpoint: median survival time, dose: 0.25 mg/kg/injection, schedule: Q01DX005 (ip), vehicle: other, evaluated on day 5): 130 % of control
T/C (T/C endpoint: median survival time, dose: 0.25 mg/kg/injection, schedule: Q01DX005 (ip), vehicle: other, evaluated on day 31): 130 % of control
T/C (T/C endpoint: median survival time, dose: 0.25 mg/kg/injection, schedule: Q03HX008 (ip), vehicle: water, evaluated on day 5): 141 % of control
T/C (T/C endpoint: median survival time, dose: 0.25 mg/kg/injection, schedule: Q03HX008 (ip), vehicle: water, evaluated on day 30): 129 % of control [9 of 10 alive]
T/C (T/C endpoint: median survival time, dose: 0.25 mg/kg/injection, schedule: Q03HX008 (ip), vehicle: water, evaluated on day 46): 145 % of control
T/C (T/C endpoint: median survival time, dose: 0.25 mg/kg/injection, schedule: Q03HX024 (ip), vehicle: water): 131 % of control
T/C (T/C endpoint: median survival time, dose: 0.38 mg/kg/injection, schedule: Q03HX008 (ip), vehicle: water, evaluated on day 5): 113 (2×), 125, 130, 132 % of control
T/C (T/C endpoint: median survival time, dose: 0.38 mg/kg/injection, schedule: Q03HX008 (ip), vehicle: water, evaluated on day 7): 105 % of control
T/C (T/C endpoint: median survival time, dose: 0.38 mg/kg/injection, schedule: Q03HX008 (ip), vehicle: water, evaluated on day 20): 130 % of control [7 of 8 alive]
T/C (T/C endpoint: median survival time, dose: 0.38 mg/kg/injection, schedule: Q03HX008 (ip), vehicle: water, evaluated on day 29): 132 % of control [7 of 8 alive]
T/C (T/C endpoint: median survival time, dose: 0.38 mg/kg/injection, schedule: Q03HX008 (ip), vehicle: water, evaluated on day 30): 105, 113, 113 % of control [7 of 8 alive]
T/C (T/C endpoint: median survival time, dose: 0.38 mg/kg/injection, schedule: Q03HX008 (ip), vehicle: water, evaluated on day 60): 125 % of control
T/C (T/C endpoint: median survival time, dose: 0.38 mg/kg/injection, schedule: Q04DX003 (ip), vehicle: water, evaluated on day 5): 132 % of control
T/C (T/C endpoint: median survival time, dose: 0.38 mg/kg/injection, schedule: Q04DX003 (ip), vehicle: water, evaluated on day 60): 132 % of control
T/C (T/C endpoint: median survival time, dose: 0.39 mg/kg/injection, schedule: Q01DX005 (ip), vehicle: water, evaluated on day 5): 120 % of control
T/C (T/C endpoint: median survival time, dose: 0.39 mg/kg/injection, schedule: Q01DX005 (ip), vehicle: water, evaluated on day 60): 120 and 121 % of control
T/C (T/C endpoint: median survival time, dose: 0.39 mg/kg/injection, schedule: Q01DX005 (ip), vehicle: water, evaluated on day 90): 133 % of control
T/C (T/C endpoint: median survival time, dose: 0.39 mg/kg/injection, schedule: Q03HX008 (ip), vehicle: none): 138 % of control
T/C (T/C endpoint: median survival time, dose: 0.39 mg/kg/injection, schedule: Q03HX008 (ip), vehicle: water, evaluated on day 5): 142 and 151 % of control
T/C (T/C endpoint: median survival time, dose: 0.39 mg/kg/injection, schedule: Q03HX008 (ip), vehicle: water, evaluated on day 7): 106 % of control
T/C (T/C endpoint: median survival time, dose: 0.39 mg/kg/injection, schedule: Q03HX008 (ip), vehicle: water, evaluated on day 30): 140 % of control
T/C (T/C endpoint: median survival time, dose: 0.39 mg/kg/injection, schedule: Q03HX008 (ip), vehicle: water, evaluated on day 46): 150 % of control
T/C (T/C endpoint: median survival time, dose: 0.39 mg/kg/injection, schedule: Q03HX008 (ip), vehicle: water, evaluated on day 60): 136 % of control
T/C (T/C endpoint: median survival time, dose: 0.39 mg/kg/injection, schedule: Q03HX008 (ip), vehicle: water, evaluated on day 63): 105 % of control
T/C (T/C endpoint: median survival time, dose: 0.39 mg/kg/injection, schedule: Q03HX016 (ip), vehicle: water, evaluated on day 5): 135 % of control
T/C (T/C endpoint: median survival time, dose: 0.39 mg/kg/injection, schedule: Q03HX016 (ip), vehicle: water, evaluated on day 46): 133 % of control
T/C (T/C endpoint: median survival time, dose: 0.39 mg/kg/injection, schedule: Q03HX016 (ip), vehicle: water, evaluated on day 60): 95 and 109 % of control
T/C (T/C endpoint: median survival time, dose: 0.39 mg/kg/injection, schedule: Q03HX024 (ip), vehicle: water, evaluated on day 7): 108 and 116 % of control
T/C (T/C endpoint: median survival time, dose: 0.39 mg/kg/injection, schedule: Q03HX024 (ip), vehicle: water, evaluated on day 32): 116 % of control
T/C (T/C endpoint: median survival time, dose: 0.39 mg/kg/injection, schedule: Q03HX024 (ip), vehicle: water, evaluated on day 60): 90 [7 of 8 alive] and 118 % of control
T/C (T/C endpoint: median survival time, dose: 0.39 mg/kg/injection, schedule: Q03HX024 (ip), vehicle: water, evaluated on day 63): 105 % of control [7 of 8 alive]
T/C (T/C endpoint: median survival time, dose: 0.5 mg/kg/injection, schedule: Q03HX008 (ip), vehicle: water, evaluated on day 5): 131 % of control
T/C (T/C endpoint: median survival time, dose: 0.5 mg/kg/injection, schedule: Q03HX008 (ip), vehicle: water, evaluated on day 30): 129 % of control
T/C (T/C endpoint: median survival time, dose: 0.5 mg/kg/injection, schedule: Q03HX008 (ip), vehicle: water, evaluated on day 46): 130 % of control
T/C (T/C endpoint: median survival time, dose: 0.5 mg/kg/injection, schedule: Q03HX008 (ip), vehicle: water, evaluated on day 61): 100 % of control
T/C (T/C endpoint: median survival time, dose: 0.5 mg/kg/injection, schedule: Q03HX024 (ip), vehicle: water): 131 % of control
T/C (T/C endpoint: median survival time, dose: 0.5 mg/kg/injection, schedule: Q04DX003 (ip), vehicle: water, evaluated on day 5): 132 % of control
T/C (T/C endpoint: median survival time, dose: 0.5 mg/kg/injection, schedule: Q04DX003 (ip), vehicle: water, evaluated on day 30): 132 % of control
T/C (T/C endpoint: median survival time, dose: 0.65 mg/kg/injection, schedule: Q01DX005 (ip), vehicle: water, evaluated on day 5): 148 % of control
T/C (T/C endpoint: median survival time, dose: 0.65 mg/kg/injection, schedule: Q01DX005 (ip), vehicle: water, evaluated on day 35): 115 % of control
T/C (T/C endpoint: median survival time, dose: 0.65 mg/kg/injection, schedule: Q01DX005 (ip), vehicle: water, evaluated on day 60): 131 and 148 % of control
T/C (T/C endpoint: median survival time, dose: 0.65 mg/kg/injection, schedule: Q01DX005 (ip), vehicle: water, evaluated on day 90): 144 % of control
T/C (T/C endpoint: median survival time, dose: 0.65 mg/kg/injection, schedule: Q03HX008 (ip), vehicle: water, evaluated on day 5): 121, 132, 133, 142 % of control
T/C (T/C endpoint: median survival time, dose: 0.65 mg/kg/injection, schedule: Q03HX008 (ip), vehicle: water, evaluated on day 7): 105, 108, 114, 115 % of control
T/C (T/C endpoint: median survival time, dose: 0.65 mg/kg/injection, schedule: Q03HX008 (ip), vehicle: water, evaluated on day 20): 108 % of control
